This is an account of results in article doi:10.1101/2025.06.12.659263.

Chains of the proteins cited; added tags and fusions are not shown. Lines headed by an entry give the natural chain unless they say otherwise; changes in a name come on top. A line that says so, or that is headed by a name, gives the form on record, which may keep a tag or linker. Residues count along the entry.
UniProt P23201: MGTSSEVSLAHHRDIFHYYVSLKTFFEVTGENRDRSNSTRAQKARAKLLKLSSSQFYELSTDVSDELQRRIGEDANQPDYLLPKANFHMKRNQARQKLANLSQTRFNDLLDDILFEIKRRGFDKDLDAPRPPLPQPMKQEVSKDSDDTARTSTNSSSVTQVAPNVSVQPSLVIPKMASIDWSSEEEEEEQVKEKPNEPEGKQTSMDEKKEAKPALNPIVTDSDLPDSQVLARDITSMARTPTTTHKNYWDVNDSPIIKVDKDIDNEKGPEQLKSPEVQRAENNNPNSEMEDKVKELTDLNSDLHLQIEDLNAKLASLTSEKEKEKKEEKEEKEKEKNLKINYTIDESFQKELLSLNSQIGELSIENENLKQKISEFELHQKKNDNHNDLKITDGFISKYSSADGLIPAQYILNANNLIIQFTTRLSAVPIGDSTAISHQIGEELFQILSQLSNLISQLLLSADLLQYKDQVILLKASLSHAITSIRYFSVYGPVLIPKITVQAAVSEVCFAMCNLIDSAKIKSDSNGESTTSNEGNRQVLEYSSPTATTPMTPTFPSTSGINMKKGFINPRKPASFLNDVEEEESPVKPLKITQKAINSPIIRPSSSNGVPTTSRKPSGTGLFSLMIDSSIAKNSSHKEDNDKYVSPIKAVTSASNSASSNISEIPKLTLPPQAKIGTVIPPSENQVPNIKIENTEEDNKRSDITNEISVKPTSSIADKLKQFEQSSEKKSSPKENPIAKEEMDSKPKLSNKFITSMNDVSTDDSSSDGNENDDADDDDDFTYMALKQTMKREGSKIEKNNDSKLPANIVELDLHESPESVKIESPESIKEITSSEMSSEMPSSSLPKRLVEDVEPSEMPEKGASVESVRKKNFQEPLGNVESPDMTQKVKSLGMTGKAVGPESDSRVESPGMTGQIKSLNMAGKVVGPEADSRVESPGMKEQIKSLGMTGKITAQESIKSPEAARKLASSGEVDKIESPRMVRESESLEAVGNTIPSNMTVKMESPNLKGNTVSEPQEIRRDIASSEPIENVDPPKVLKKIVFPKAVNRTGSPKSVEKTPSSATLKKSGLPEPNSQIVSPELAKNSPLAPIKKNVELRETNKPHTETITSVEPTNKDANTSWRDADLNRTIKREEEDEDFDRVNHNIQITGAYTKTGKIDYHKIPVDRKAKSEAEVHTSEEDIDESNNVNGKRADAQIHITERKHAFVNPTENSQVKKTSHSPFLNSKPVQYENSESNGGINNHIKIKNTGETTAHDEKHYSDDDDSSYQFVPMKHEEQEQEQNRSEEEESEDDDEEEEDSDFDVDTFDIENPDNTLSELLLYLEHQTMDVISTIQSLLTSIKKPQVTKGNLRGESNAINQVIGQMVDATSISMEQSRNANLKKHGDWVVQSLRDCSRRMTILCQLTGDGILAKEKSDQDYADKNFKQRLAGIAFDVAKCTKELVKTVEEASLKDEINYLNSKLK
SHD1CRU: residues 1-124 of P23201
SHD1CRU L101A (P23201, form named): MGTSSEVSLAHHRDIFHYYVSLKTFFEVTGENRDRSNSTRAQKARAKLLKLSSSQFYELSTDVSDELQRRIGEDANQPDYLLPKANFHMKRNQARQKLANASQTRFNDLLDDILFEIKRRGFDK
SHD1CRU L101A and L109A (P23201, form named): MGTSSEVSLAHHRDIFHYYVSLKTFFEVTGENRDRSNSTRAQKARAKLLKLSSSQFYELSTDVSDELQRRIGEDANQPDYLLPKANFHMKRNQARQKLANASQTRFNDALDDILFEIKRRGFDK
SHD1CRU L51A (P23201, form named): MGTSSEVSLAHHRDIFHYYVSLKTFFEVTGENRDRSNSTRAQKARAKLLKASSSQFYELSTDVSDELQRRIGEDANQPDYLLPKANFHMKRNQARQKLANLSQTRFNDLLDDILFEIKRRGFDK
SHD1CRU L109A (P23201, form named): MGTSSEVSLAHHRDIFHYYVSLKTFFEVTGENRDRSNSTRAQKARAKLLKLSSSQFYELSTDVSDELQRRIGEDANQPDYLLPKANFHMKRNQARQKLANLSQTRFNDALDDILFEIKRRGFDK
SHD1_(K97D) (P23201, form named): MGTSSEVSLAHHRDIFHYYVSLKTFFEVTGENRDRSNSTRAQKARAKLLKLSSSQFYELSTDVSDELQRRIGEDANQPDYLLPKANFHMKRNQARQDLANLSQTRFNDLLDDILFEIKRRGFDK
SHD1CRU L48A and L51A (P23201, form named): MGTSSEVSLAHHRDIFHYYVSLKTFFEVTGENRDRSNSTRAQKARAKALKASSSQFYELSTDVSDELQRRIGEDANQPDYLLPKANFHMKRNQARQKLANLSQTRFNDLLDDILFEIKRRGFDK
SHD1CRU L48A (P23201, form named): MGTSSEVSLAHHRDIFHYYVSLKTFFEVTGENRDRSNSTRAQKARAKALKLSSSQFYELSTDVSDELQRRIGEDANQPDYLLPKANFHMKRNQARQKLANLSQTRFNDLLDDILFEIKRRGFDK
UniProt Q08729: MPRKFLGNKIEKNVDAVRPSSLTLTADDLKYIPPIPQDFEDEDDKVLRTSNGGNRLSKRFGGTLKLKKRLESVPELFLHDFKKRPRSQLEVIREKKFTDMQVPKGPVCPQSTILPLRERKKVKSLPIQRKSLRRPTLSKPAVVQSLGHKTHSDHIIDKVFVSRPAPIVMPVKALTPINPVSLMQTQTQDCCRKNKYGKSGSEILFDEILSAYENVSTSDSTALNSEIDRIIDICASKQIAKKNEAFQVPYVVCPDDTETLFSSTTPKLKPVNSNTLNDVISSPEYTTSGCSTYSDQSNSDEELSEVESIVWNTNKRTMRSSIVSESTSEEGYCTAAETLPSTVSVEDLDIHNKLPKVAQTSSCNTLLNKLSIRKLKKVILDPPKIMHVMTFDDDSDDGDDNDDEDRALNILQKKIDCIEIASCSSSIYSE
UniProt P32490: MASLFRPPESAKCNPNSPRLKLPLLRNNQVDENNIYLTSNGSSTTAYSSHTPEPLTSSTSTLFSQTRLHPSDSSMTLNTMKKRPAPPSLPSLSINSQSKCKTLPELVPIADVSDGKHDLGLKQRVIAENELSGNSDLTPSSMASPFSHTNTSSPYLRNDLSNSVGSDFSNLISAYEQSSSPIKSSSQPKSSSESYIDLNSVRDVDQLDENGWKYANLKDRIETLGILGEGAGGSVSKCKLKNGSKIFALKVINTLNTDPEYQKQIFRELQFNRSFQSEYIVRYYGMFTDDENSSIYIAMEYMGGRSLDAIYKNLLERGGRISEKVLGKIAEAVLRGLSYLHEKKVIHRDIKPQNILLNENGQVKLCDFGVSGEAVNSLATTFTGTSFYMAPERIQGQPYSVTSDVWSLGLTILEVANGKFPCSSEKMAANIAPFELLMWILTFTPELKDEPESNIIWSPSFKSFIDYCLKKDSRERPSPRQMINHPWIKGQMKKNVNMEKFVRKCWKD

Like-named read-outs stand apart in the source and are kept apart here. No constants are given. Whether binding was seen depends on the method and setting. Binding seen in cells or lysates may run through a third protein. Some entries that bind do so weakly or less than the wild type.

What all share (assay): split reporter
In experiment [1] the target is SHD1CRU (S. cerevisiae) (UniProt P23201).
For experiment [2], the target named is SHD1CRU L101A (S. cerevisiae) (UniProt P23201).
Experiment [3] concerns the target SHD1CRU L101A and L109A (S. cerevisiae) (UniProt P23201).
Experiment [4] addresses SHD1CRU L51A (S. cerevisiae) (UniProt P23201).
In experiment [5] the target is SHD1CRU L109A (S. cerevisiae) (UniProt P23201).
In experiment [6] the target is SHD1CRU (S. cerevisiae) (UniProt P23201). This is another data set of the same source.
In experiment [7] the target is SHD1_(K97D) (S. cerevisiae) (UniProt P23201).
Experiment [8] deals with SHD1CRU L48A and L51A (S. cerevisiae) (UniProt P23201).
Experiment [9] has as its target SHD1CRU L48A (S. cerevisiae) (UniProt P23201).
Experiment [10] concerns the target Msb4_(22-81Δ35-39)-Spa2CRU (S. cerevisiae) (UniProt Q12317+P23201).
Experiment [11] deals with Msb4_(22-81)-Spa2CRU (S. cerevisiae) (UniProt Q12317+P23201).
For experiment [12], the target named is Spa2CRU (S. cerevisiae) (UniProt P23201).
In experiment [13] the target is Dse3_(181-240Δ208-212)SHD1CRU (S. cerevisiae) (UniProt Q08729+P23201).
The target of experiment [14] is Mkk1_(143–202)SHD1CRU (S. cerevisiae) (UniProt P32490+P23201).
The target in experiment [15] is SHD1CRU (S. cerevisiae) (UniProt P23201). This is another data set of the same source.
Another experiment concerns the target T1, Ste5CRU (S. cerevisiae) (UniProt P32917).
T1 sequence: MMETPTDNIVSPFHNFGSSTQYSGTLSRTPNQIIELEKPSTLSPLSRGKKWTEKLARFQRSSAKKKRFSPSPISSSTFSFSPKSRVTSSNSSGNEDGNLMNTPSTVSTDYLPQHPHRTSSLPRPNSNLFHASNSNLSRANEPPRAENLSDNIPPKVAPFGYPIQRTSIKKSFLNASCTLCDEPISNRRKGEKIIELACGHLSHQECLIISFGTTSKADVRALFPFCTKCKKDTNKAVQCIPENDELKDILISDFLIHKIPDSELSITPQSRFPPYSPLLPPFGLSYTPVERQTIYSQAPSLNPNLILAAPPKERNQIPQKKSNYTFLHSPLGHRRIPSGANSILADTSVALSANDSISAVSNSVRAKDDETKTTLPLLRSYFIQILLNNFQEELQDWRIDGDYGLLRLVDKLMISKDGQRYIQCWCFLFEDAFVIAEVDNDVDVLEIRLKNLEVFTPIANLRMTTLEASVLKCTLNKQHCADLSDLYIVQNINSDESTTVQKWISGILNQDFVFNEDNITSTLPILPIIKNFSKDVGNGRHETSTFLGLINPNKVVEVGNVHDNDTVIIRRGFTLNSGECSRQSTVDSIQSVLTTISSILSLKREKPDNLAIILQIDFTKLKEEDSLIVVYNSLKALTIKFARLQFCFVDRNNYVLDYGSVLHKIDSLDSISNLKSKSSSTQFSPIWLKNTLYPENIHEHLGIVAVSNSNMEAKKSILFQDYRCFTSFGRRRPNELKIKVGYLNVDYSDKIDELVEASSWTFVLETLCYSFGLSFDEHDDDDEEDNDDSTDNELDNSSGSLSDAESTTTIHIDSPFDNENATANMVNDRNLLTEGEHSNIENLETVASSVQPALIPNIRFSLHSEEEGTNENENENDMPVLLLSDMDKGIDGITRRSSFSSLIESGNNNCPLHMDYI

Experiment [16] addresses Spa2CRU (S. cerevisiae) (UniProt P23201). The source holds these as a separate data set.

B1: Nub-Msb4 (protein, UniProt Q12317 1-492)
chain: MIMSSTMSTEAALVPNESVFDTVSSFNEDDANYSVLDLYDDDDEGDDSSTVERKEILTTRELEKAKAFTSLIMADPENFDRYGFSKKGYFISQEEYDKWWTEYNRYTERRKKKWENFLLKNKIELHNDNPLVYPARTDELSKFVRKGIPAEWRGNAWWYFAGGQRQLDANVGVYDRLKSDCREGAVSGKDMEAIERDLYRTFPDNIHFHKESFQNGEPAIIRSLRRVLMAFSVYDKTIGYCQSMNFLVGLLLLFMEEEKAFWMLVIITGKYLPGVYESDLEGANVDQGVLVLCIKEYLPEIWSHIESSYMNGNGSTDQISGPASGEEYLCRLPTLTLCTASWFMSCFVGVVPIETTLRIWDCLFYEESHFLFKVALGILKLSESEFLESKSQKLFRQYSSYTFGGSNDSDSTFKRLKNKIKTQEEADMEILQVIQNFPKRLLNPNDIFEKVLMKKKVALNGITQEKIDRGREYVAMARNRQRASSRPKERRK
As to B1, the binding result with SHD1CRU (S. cerevisiae) [1] is listed as “binds”; in experiment [2], “binds”; in experiment [3], “no binding”; in experiment [4], “binds”; in experiment [5] it was “binds”; with SHD1CRU (S. cerevisiae) [6], “binds”. Further, the binding result was “binds” in experiment [7]; “no binding” in experiment [8]; “binds” in experiment [9]; “binds” in [10]; “no binding” in [11]; “binds” with Spa2CRU (S. cerevisiae) [12].

B2: Nub-Msb3 (protein, UniProt P48566 1-633)
chain: MQNDQQRFSLQNRTVLAHPYKRLGGAFTVKSPSVPNFHDKMHSDHSSSDSALVNGSFRANDHRSVEPSCLGQASPSEHDGNLSVIDLYGDEVESQRAEGEDDDDNNGDNGNEDLEEVHSDDLDLVPDDDNRQRVELEGAASATSANSNGINNTHFDRYGFKKQNNYISEAEYDKWWVEYSQYCVRRKHKWQLLLEKSGLPVTDDSPSRFPSKSERLKRYVRKGIPAEWRGNAWWHFARGQEKLNKNKGVYSQLLRKMKQIKKQNPNEKQVQDLDIIERDLNRTFPDNIHFQSSLHNKEGPPIIKSLRRVLVAFSLYNPKIGYCQSMNFLAGLLLLFLDEERAFWMLVIITSRYLPGVHNINLEGVNIDQGVLMLCVKEYIPEVWSYIKPSIDHHQKNNKTFSPSNKKVLFNMQKNEFLYRLPPITLCTASWFMSCFVGVVPIETTLRIWDCLFYEESHFLFKVSLAVLKLSEHDLSKIKPRNNSLNYSWGSNLNQRGGSMGQEDSDMEIFQVIQTFPKTLLNPNEIFEKIIFKRRFNLNRLDQDEIDRCRKFVAAQRLKFKTYGELLGNSTSEADLPINDNTDNKGIHITSDAVNEALSSEVYGFKKSLAGVHWNNSIKEKVKQMRKKKDKGD
With B2, the binding result is given as “binds” with SHD1CRU (S. cerevisiae) [1]; “no binding” in experiment [2]; “no binding” in experiment [4]; “binds” in experiment [13]; “no binding” in [5]; “no binding” in experiment [14]. For the same molecule, the binding entry is “binds” in the experiment with SHD1CRU (S. cerevisiae) [6]; “no binding” in [7]; “no binding” in experiment [9]; “binds” in experiment [10]; “binds” with SHD1CRU (S. cerevisiae) [15]; “no binding” in experiment [11]. Also, the binding entry with Spa2CRU (S. cerevisiae) [12] was “binds”.

B3: Nub-Ste7 (protein, UniProt P06784 1-515)
chain: MFQRKTLQRRNLKGLNLNLHPDVGNNGQLQEKTETHQGQSRIEGHVMSNINAIQNNSNLFLRRGIKKKLTLDAFGDDQAISKPNTVVIQQPQNEPVLVLSSLSQSPCVSSSSSLSTPCIIDAYSNNFGLSPSSTNSTPSTIQGLSNIATPVENEHSISLPPLEESLSPAAADLKDTLSGTSNGNYIQLQDLVQLGKIGAGNSGTVVKALHVPDSKIVAKKTIPVEQNNSTIINQLVRELSIVKNVKPHENIITFYGAYYNQHINNEIIILMEYSDCGSLDKILSVYKRFVQRGTVSSKKTWFNELTISKIAYGVLNGLDHLYRQYKIIHRDIKPSNVLINSKGQIKLCDFGVSKKLINSIADTFVGTSTYMSPERIQGNVYSIKGDVWSLGLMIIELVTGEFPLGGHNDTPDGILDLLQRIVNEPSPRLPKDRIYSKEMTDFVNRCCIKNERERSSIHELLHHDLIMKYVSPSKDDKFRHWCRKIKSKIKEDKRIKREALDRAKLEKKQSERSTH
Turning to B3, the binding entry is on record as “binds” with SHD1CRU (S. cerevisiae) [1]; “binds” with Ste5CRU (S. cerevisiae); “no binding” in experiment [2]; “no binding” in experiment [4]; “no binding” in experiment [5]; “binds” with SHD1CRU (S. cerevisiae) [6]. For the same molecule, the binding entry is “binds” in experiment [7], “no binding” with Spa2CRU (S. cerevisiae) [16] and “no binding” in experiment [9].
